Consider one substance from paper PMC13000115.

Chains of the proteins cited; added tags and fusions are not shown.
UniProt P35222: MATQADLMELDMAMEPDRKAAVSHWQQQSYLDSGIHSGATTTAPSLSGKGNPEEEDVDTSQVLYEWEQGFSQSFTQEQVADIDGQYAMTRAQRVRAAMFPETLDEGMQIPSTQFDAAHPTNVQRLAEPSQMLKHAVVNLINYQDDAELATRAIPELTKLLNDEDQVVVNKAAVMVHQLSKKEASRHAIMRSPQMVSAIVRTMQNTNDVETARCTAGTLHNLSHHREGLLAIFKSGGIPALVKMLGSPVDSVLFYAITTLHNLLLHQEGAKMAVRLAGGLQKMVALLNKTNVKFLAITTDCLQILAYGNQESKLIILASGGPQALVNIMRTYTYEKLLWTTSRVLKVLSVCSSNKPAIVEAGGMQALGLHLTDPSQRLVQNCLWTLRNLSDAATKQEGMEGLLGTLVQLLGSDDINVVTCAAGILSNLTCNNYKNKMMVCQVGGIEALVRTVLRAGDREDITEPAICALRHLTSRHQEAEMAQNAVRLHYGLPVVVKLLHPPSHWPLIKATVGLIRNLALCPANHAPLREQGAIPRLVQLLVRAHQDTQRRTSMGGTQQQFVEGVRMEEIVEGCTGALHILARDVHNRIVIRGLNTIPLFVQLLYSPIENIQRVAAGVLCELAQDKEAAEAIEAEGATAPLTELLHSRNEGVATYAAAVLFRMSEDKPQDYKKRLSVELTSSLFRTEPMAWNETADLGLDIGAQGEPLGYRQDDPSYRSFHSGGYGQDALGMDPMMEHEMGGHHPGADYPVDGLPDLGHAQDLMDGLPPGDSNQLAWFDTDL
UniProt P17844: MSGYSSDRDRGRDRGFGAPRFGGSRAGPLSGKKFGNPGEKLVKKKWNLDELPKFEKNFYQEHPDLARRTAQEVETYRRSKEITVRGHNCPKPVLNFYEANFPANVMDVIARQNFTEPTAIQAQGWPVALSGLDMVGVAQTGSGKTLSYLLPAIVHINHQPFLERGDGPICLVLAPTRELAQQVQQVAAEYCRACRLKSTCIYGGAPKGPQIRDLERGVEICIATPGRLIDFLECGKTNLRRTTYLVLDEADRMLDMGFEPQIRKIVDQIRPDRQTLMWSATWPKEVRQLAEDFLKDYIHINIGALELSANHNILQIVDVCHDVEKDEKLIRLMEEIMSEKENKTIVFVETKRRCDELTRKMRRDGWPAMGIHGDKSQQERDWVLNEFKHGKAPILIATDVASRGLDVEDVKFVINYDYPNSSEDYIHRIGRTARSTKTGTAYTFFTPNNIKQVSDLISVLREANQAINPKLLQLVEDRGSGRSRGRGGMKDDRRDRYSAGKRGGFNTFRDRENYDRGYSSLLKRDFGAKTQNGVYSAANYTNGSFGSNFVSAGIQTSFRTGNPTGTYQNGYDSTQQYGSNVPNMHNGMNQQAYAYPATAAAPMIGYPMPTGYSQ

In this assay the target is β-catenin (UniProt P35222). As to the kind of experiment: co-IP; co-immunoprecipitation of DDX5 and β-catenin, testing the effect of MIG; n = 3; cells, bait and antibody not stated (performed as in ref. 42).

No constants are given. Whether binding was seen depends on the method and setting. In cells and extracts the contact can be indirect. Some binding calls cover weakened binding; strength is not graded here.

On to “DDX5 (DEAD-box helicase 5) (from UniProt P17844 1-614)”, for which the binding result is given as “binds”.
